The text below walks through data of PubChem BioAssay AID1347423 (Functional Genomics Laboratory (NCATS/FGL), 2020).

Out of some 52,000 sequences screened, about 210 (0.4%) were called active.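 Rule for the calls: active = gene whose silencing raises cell survival under the drug, median off-target-corrected z-score across its silencing RNAs 2 or more; inactive = the rest.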 Some of the results follow.

A short description of the test: Resistance to Poly (ADP-Ribose) Polymerase inhibitor: Gene Identification via Genome-wide siRNA Screen. The note with it: mouse BRCA2 R2336H ES cells, olaparib, CellTiter-Glo viability; active compounds read high. In outline:
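Mouse BRCA2 R2336H ES cells were reverse-transfected with siRNA (20 nM final), treated at 48 h with 500 nM olaparib, and read by CellTiter-Glo after 72 h. Scores: MAD-based z per siRNA, median per gene, seed off-target correction.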
On the technique in general: ATP-based viability assays read luminescence as a measure of living cells.
Turning to GGCCAUACGGACCAUGUAUTT against Slc25a19, the z-score is inactive: -0.397.
The figure for GGUAAACCUGUGUUUUGAUTT against Cyfip2 is inactive: -0.196.
The result for “GGAAGAUCAGAGAUGGACATT against 4432409M07Rik” reads inactive: -2.25; that for GGUGGAGUUCGUGUUGAGCTT against Gabt4, inactive: 1.98; that for CGAUUCCAGAAGAUCAUGUTT against Ott, inactive: -1.31.
The result for GGCUGGUCUCCAAACCCAATT against F13b reads inactive: 1.41; that for GGAGCACAAAAAUCAGACATT against Hmga1l4, inactive: 0.75; that for GCCUACGAGGACAGUACAATT against Mst1r, inactive: 0.412.
For “GGAGACAAUCUGGAUAAGCTT against 2810032G03Rik”, the z-score is inactive: -0.00302.
The figure for GGAGGUCUUCAGUUCUUACTT against Fntb is inactive: -1.63; for “GGACACUGUGGAUAAUGACTT against 1810009J06Rik” it is inactive: -0.56; for GGAAAUGGUCCCUCUGUGUTT against Bzrap1 it is inactive: -1.22.
The figure for CGCUACGACUAGAGUUUGCTT against Rbpms is inactive: 1.28; for GCUAGACCCAUAAUAAAACTT against Synpo2l it is inactive: 0.84.
The figure for “CCGCAUUCCCAUGAAGACATT against 4933430F16Rik” is inactive: -0.262.
For the sequence GGUCAAUUUGGUUUGUGAATT against Cenpa, the z-score was inactive: -1.16.
The result for CCCGACCUCAACAUUUGUATT against Bmp2k reads inactive: 0.0815.
The figure for “GGGCCUCAAACAUCUGACUTT against 2600016J21Rik” is inactive: -0.357.
Turning to “GCUCCAAAGAGAUUGAGACTT against 4933417K04Rik”, the z-score is inactive: -0.27.
Regarding GCAAUAGUGAGCACGCCAGTT against Col18a1, the z-score was inactive: 1.19.
“GGUAUGGUUUCUAUAACAATT against 9330196J05Rik”: the z-score was inactive: 1.43.
“GGCUGUAUUUUGUAUUGUCTT against 2810002N01Rik”: the z-score was inactive: 0.855.
With GCUGCUUGCUGACCUCCUATT against Olfr522, the z-score is inactive: -1.98.
The figure for CCGCAUGGAGCAUCUAAUATT against Tuft1 is inactive: 0.109.
The figure for “CGAGGUGGCUACAGAUCAATT against DXBwg1396e” is inactive: 0.207; for GCACACCUAGAAACAACCGTT against Mfap3l it is inactive: -0.028.
With GCUCUAGGAAUUCCUCACUTT against Bambi, the z-score is inactive: 0.378.
The figure for “GGAAAAGAGAGAAAAUGUUTT against D130059P03Rik” is inactive: -0.673.
In the case of CCUCGUAUUAGAUGAUGCATT against Snrpe, the z-score was inactive: -3.24.
With GCCAAGUCCCGACAAGUAGTT against Rpl26, the z-score was inactive: -3.08.
The figure for “GGGUGUACAUUUUUCUUGUTT against 1700024B05Rik” is inactive: 1.9.
Take GCCCGCAUUGCCUUUUGAATT against Rai2: the z-score was inactive: -0.286.
The figure for GCUUCGAGUCAUAGGUUUATT against Gm316 is inactive: -0.291.
The result for CCGAAUUUCUGCAUUUAACTT against Cnbp1 reads inactive: 1.09; that for GGCUUAGUCAACUUGAAAATT against Atp5s, inactive: -0.608.
The figure for “GGAGGAACAGAAGAAACUCTT against 1110017O22Rik” is inactive: 0.314; for GGAAAACAGGAAAAUCCAUTT against Olfr1076 it is inactive: 1.75; for CCAUGUAUCAAUGAUGAUGTT against C6 it is inactive: -0.139.
GGAUAACCUUCUCUGGAGATT against Fbxw7: the z-score was inactive: 0.826.
The result for GGGUCAAAGCCCAUGGCAATT against Hbb-y reads inactive: 1.29.
For CCAGAAACGAUGCAUUCAUTT against Olfr124, the z-score is inactive: 0.448.
The result for GCCAGAUGGAUCGAAAGAUTT against Numa1 reads inactive: -0.514.
The result for GCGUGAGCUUAAGAAGCAATT against Leng8 reads inactive: -1.75; that for CGAGGUGGUCAUAAAGAACTT against Gas8, inactive: -0.000513.
The result for UGUACUGAUACCUAUUUCATT against Olfr1251 reads inactive: -0.774; that for GGUACAGUGAUUGUACAACTT against Atrx, inactive: 0.751; that for GCAUGUCGUCUGAGAAAGUTT against Pgr, inactive: -0.535.
Regarding GGAUGACUGUAUCUGUACUTT against Ttc3, the z-score is inactive: 0.145.
The result for GGCUGUAUCUCAUCUUUGATT against Cdc2a reads inactive: -1.8; that for “GGAUACAGAGCAGGAGAAATT against 4930539I12Rik”, inactive: -0.358; that for GGUGUUGAUGUAAAAACACTT against Egf, inactive: -0.0405.
The figure for GCUUCACUAAUGUUGGUCUTT against Olfr958 is inactive: 0.381; for “GGUAAAUCCUCUACCGCAUTT against D7Ertd458e” it is inactive: 0.912; for “CCUGUCGCCACGUGGAAUATT against D530030D03Rik” it is inactive: -1.75.
The result for GCUACAAGUGCCACAGAUATT against Doxl2 reads inactive: 0.263.
As to GGUGAUUGUCCGGUUCGGUTT against BC003277, the z-score is inactive: 0.17.
The figure for CCUGGAUGGUCAUAUUAAGTT against Lats2 is inactive: -0.119.
The result for GGCUUCGUGGCAAAGUCAUTT against Sucla2 reads inactive: 0.365; that for GGUGUUAAUUGUAGCAGGGTT against Olfr920, inactive: 0.932; that for GCAUUCGGAAGAGUCAUGUTT against Hnf4g, inactive: -1.05.
Turning to CGGAUAAGCGGAUCUUUGUTT against Cad, the z-score is inactive: 0.133.
As for “GGAACAAGUGGUAUUCCCGTT against 2610319K07Rik”, the z-score is inactive: -0.889.
The figure for AUACGAUUUUUGUACUGCUTT against Defcr4 is inactive: 0.493; for AAAAUCGUCAGAUCAAUCATT against Olfr698 it is inactive: -0.909.
Consider GCAUUUAAUGGCAUUACUGTT against Gm414, for which the z-score was inactive: 0.219.
With GGCCAUUAUGGACAUGAAUTT against Zcchc7, the z-score was inactive: 0.883.
